Source: PMC4393111
No constants are given. Whether binding was seen depends on the method and setting. In cells and extracts the contact can be indirect. Some results given as binding are weak or reduced against the parent protein; the word gives no strength. For some of these results: Tags and fused reporters may be left off the sequences shown. Each block holds one molecule with its values, some of them ahead of it.

By UniProt entry, the sequences of proteins in these tests, tags left out. Where a name states a change or a piece, a line headed by the entry shows the natural chain unless it says otherwise.
UniProt P61006: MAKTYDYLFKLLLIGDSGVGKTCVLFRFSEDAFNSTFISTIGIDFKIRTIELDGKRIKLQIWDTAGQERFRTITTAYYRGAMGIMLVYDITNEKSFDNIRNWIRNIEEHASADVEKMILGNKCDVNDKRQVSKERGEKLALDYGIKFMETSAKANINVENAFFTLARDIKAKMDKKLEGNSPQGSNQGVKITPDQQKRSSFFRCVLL
UniProt P49841: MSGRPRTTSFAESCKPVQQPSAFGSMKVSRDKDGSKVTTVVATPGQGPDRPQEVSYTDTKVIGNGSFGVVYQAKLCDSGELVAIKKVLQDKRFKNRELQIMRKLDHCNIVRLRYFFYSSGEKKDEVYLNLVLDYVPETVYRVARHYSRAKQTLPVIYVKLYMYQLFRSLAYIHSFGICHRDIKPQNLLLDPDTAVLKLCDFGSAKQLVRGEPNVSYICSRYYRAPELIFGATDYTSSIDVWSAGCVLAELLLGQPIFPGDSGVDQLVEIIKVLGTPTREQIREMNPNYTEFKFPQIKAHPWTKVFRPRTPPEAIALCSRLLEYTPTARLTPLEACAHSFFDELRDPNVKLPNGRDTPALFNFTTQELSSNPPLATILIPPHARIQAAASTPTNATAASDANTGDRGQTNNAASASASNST

Columns and labels:
GST-GDI2 (human) = biological target: T1, GST-GDI2 (human) (UniProt P50395); assay: pull-down; GST or GST-GDI2 on GST affinity beads in PBS, 4°C 1 h, then cell lysate 1 h at 4°C, three washes with PBS; blot for endogenous Rab8; only the target purified
T1 sequence: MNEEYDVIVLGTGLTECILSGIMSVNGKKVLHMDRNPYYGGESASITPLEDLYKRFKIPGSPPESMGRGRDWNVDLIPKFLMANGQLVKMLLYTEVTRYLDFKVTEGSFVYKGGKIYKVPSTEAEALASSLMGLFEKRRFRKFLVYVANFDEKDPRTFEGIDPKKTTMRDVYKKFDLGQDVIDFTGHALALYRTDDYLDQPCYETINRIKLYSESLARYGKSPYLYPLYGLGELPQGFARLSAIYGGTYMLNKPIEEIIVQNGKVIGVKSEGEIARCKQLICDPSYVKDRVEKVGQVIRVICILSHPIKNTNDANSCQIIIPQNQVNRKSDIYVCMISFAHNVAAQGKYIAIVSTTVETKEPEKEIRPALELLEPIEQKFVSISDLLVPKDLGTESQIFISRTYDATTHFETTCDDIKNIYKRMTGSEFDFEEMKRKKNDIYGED

GFP-Rab8^T22N [1] = biological target: GFP-Rab8^T22N (UniProt P61006); assay: co-IP; both partners co-expressed with tags in HEK 293T cells (some in G0 phase; some treated with the GSK3 inhibitors BIO or CHIR99021, the CK1 inhibitor D4476 or the CK2 inhibitor CX4945); IP of the GFP-, CFP/YFP-tagged partner; IP buffer 0.1% NP-40, 50 mM HEPES pH 7.00, 125 mM NaCl, 4°C
[2] = biological target: GFP-GSK3β (wild type) (human) (UniProt P49841); assay: co-IP; GFP-tagged protein expressed in HEK 293T cells, endogenous partner blotted in its immunoprecipitate; Fig 5B: G0 phase, with or without BIO or CHIR99021
GFP-Rab8^T22N [3] = biological target: GFP-Rab8^T22N (UniProt P61006); assay: as above

Molecule: endogenous Rab8 (cell lysate of Fig 3B, cell line not stated) (from UniProt P61006 1-207)
- binding (GST-GDI2 (human)): binds

B2: endogenous Dzip1 of HEK 293T cells (protein, UniProt Q86YF9 1-867)
chain: MQAEAADWFSSMPFQKHVYYPLASGPEGPDVAVAAAAAGAASMACAPPSAASGPLPFFQFRPRLESVDWRRLSAIDVDKVAGAVDVLTLQENIMNITFCKLEDEKCPHCQSGVDPVLLKLIRLAQFTIEYLLHSQEFLTSQLHTLEERLRLSHCDGEQSKKLLTKQAGEIKTLKEECKRRKKMISTQQLMIEAKANYYQCHFCDKAFMNQAFLQSHIQRRHTEENSHFEYQKNAQIEKLRSEIVVLKEELQLTRSELEAAHHASAVRFSKEYEMQKTKEEDFLKLFDRWKEEEKEKLVDEMEKVKEMFMKEFKELTSKNSALEYQLSEIQKSNMQIKSNIGTLKDAHEFKEDRSPYPQDFHNVMQLLDSQESKWTARVQAIHQEHKKEKGRLLSHIEKLRTSMIDDLNASNVFYKKRIEELGQRLQEQNELIITQRQQIKDFTCNPLNSISEPKGNPLAWQAFESQPAAPAVPMNAPALHTLETKSSLPMVHEQAFSSHILEPIEELSEEEKGRENEQKLNNNKMHLRKALKSNSSLTKGLRTMVEQNLMEKLETLGINADIRGISSDQLHRVLKSVESERHKQEREIPNFHQIREFLEHQVSCKIEEKALLSSDQCSVSQMDTLSTGEVPKMIQLPSKNRQLIRQKAVSTDRTSVPKIKKNVMEDPFPRKSSTITTPPFSSEEEQEDDDLIRAYASPGPLPVPPPQNKGSFGKNTVKSDADGTEGSEIEDTDDSPKPAGVAVKTPTEKVEKMFPHRKNVNKPVGGTNVPEMFIKKEELQELKCADVEDEDWDISSLEEEISLGKKSGKEQKEPPPAKNEPHFAHVLNAWGAFNPKGPKGEGLQENESSTLKSSLVTVTDWSDTSDV
- binding [2]: binds

Second part, the molecule after the results:

- binding (GFP-Rab8^T22N [1]): binds
B1: Myc-GDI2 (protein, UniProt P50395 1-445)
chain: MNEEYDVIVLGTGLTECILSGIMSVNGKKVLHMDRNPYYGGESASITPLEDLYKRFKIPGSPPESMGRGRDWNVDLIPKFLMANGQLVKMLLYTEVTRYLDFKVTEGSFVYKGGKIYKVPSTEAEALASSLMGLFEKRRFRKFLVYVANFDEKDPRTFEGIDPKKTTMRDVYKKFDLGQDVIDFTGHALALYRTDDYLDQPCYETINRIKLYSESLARYGKSPYLYPLYGLGELPQGFARLSAIYGGTYMLNKPIEEIIVQNGKVIGVKSEGEIARCKQLICDPSYVKDRVEKVGQVIRVICILSHPIKNTNDANSCQIIIPQNQVNRKSDIYVCMISFAHNVAAQGKYIAIVSTTVETKEPEKEIRPALELLEPIEQKFVSISDLLVPKDLGTESQIFISRTYDATTHFETTCDDIKNIYKRMTGSEFDFEEMKRKKNDIYGED

- binding (GFP-Rab8^T22N [3]): binds
B3: endogenous GDI2 of HEK 293T cells (protein, UniProt P50395 1-445)
chain: MNEEYDVIVLGTGLTECILSGIMSVNGKKVLHMDRNPYYGGESASITPLEDLYKRFKIPGSPPESMGRGRDWNVDLIPKFLMANGQLVKMLLYTEVTRYLDFKVTEGSFVYKGGKIYKVPSTEAEALASSLMGLFEKRRFRKFLVYVANFDEKDPRTFEGIDPKKTTMRDVYKKFDLGQDVIDFTGHALALYRTDDYLDQPCYETINRIKLYSESLARYGKSPYLYPLYGLGELPQGFARLSAIYGGTYMLNKPIEEIIVQNGKVIGVKSEGEIARCKQLICDPSYVKDRVEKVGQVIRVICILSHPIKNTNDANSCQIIIPQNQVNRKSDIYVCMISFAHNVAAQGKYIAIVSTTVETKEPEKEIRPALELLEPIEQKFVSISDLLVPKDLGTESQIFISRTYDATTHFETTCDDIKNIYKRMTGSEFDFEEMKRKKNDIYGED
